Assay results reported in patent publication US20100041689A1, “Combined Effects of Topiramate and Ondansetron on Alcohol Consumption” (UNIVERSITY OF VIRGINIA PATENT FOUNDATION, priority 2006, published 2010).

System: P rats
Experiment: Water, total fluid and food consumption (selectivity for ethanol), P rats
Assay type: in vivo, rat
Conditions: P>0.05; for food consumption / total fluid intake: both treatment phases, data not shown

| SMILES | water consumption (acute or chronic phase (ondansetron alone: phase not stated, data not shown), rat line not stated) | food consumption (rat line not stated) | total fluid intake (rat line not stated) | water consumption (P rats, acute testing period, topiramate 5 and 10 mg/kg, FIG. 6A) | water consumption (chronic treatment phase, compared with baseline levels, rat line not stated) |
| --- | --- | --- | --- | --- | --- |
| Cc1nccn1CC1CCc2c(c3ccccc3n2C)C1=O (stereo not shown) [Ondansetron, 9-methyl-3-[(2-methyl-1H-imidazol-1-yl)methyl]-1,2,3,9-tetrahydrocarbazol-4-one] | No effects were observed | No effects were observed | No effects were observed |  |  |
| CC1(C)O[C@@H]2[C@@H](CO[C@@]3(COS(N)(=O)=O)OC(C)(C)O[C@@H]23)O1 [Topiramate, 2,3:4,5-Bis-O-(1-methylethylidene)-beta-D-fructopyranose sulfamate] |  | no significant effects | no significant effects | did not affect water consumption | Nor did it affect water consumption |
